Converted amounts (≈) assume the structure as drawn.
Test: physchem
Conditions: buffer, pH 2.2

Q: Which solubility does the source give for COc1c2c(c(O)c3ncccc13)C(=O)N(Cc1ccc(F)cc1)C2 here?
A: Its solubility is 285 µM (≈ 96.4 µg/mL).

From ChEMBL document CHEMBL1146004, “Effect of substitution on novel tricyclic HIV-1 integrase inhibitors” (Bioorg Med Chem Lett, 2006)
